Where “and” joins values, the source holds several entries; their conditions need not be identical. Identical values can stand only once. Some of the results follow. Single wells; the ratio to wells without odorant was worked out here, and repeats agree poorly.

The test system of the test is pseudo clone 1419. Nature of the test: odorant receptor activation (CRE luciferase / Renilla) (fold of no-odor wells); higher = more activation. To be noted: 100 µM.
As to `CC(=O)c1ccccc1` [acetophenone], the odorant receptor activation was found to be 1.13. The result for `CCCCCCCCCC=O` [decyl aldehyde] reads 1.36. The result for `CC12C=CCC1C1CCC3=CC(=O)CCC3(C)C1CC2` (stereo not drawn) [androstadienone] reads 0.883. In turn, `COc1cc(C)ccc1O` [2-methoxy-4-methylphenol] displayed an odorant receptor activation of 1.21. The result for `CCCCCCCCOC(C)=O` [octyl acetate] reads 1.04; that for `C=CCc1ccc(OC)c(OC)c1` [eugenol methyl ether], 1.77. For `CC1=NC(C)SC1C` (stereo not drawn), the odorant receptor activation was found to be 1.42. The value for `CC(=O)C(C)=O` [diacetyl] was 1.25; that for `O=C1CCCCC1` [Cyclohexanone] was 1.11; that for `CC(C)=CCCC(C)=CC=O` [citral] was 0.332. As for `CC(C)CCC(=O)O` [4-methylvaleric acid], the odorant receptor activation is 1.17. The value for `CC(=O)OC1CC2CCC1(C)C2(C)C` (stereo not drawn) [isobornyl acetate] was 0.869; that for `C=CCc1ccc(O)c(OC)c1` [eugenol] was 1.95 and 1.23. As for `CC/C=C\CCO` [cis-3-hexen-1-ol], the odorant receptor activation was 0.286.

`O=CCc1ccccc1` [phenyl acetaldehyde]: the odorant receptor activation amounted to 2.08. Molecule `CC1COCc2cc3c(cc21)C(C)(C)C(C)C3(C)C` (stereo not drawn) [galaxolide] showed an odorant receptor activation of 2.93. `C=C(C)C1CC=C(C)C(=O)C1` (stereo not drawn) [r-carvone] showed an odorant receptor activation of 1.32. The molecule `COC(=O)c1ccccc1O` [methyl salicylate] gave an odorant receptor activation of 1.59. Turning to `CCCCO` [1-butanol], the odorant receptor activation was determined as 0.798. For the molecule `C=CCc1ccc(OC(C)=O)c(OC)c1` [eugenol acetate], the odorant receptor activation is 1.46.

For `CC(C)C(=O)O` [isobutyric acid], the odorant receptor activation stood at 0.705.

As to `c1cnccn1` [pyrazine], the odorant receptor activation came out at 1.46. Take `CC12C=CCC1C1CCC3CC(=O)CCC3(C)C1CC2` (stereo not drawn) [androstenone]: the odorant receptor activation amounted to 0.98. Molecule `CC(=O)OC(C)(C)C1CC=C(C)CC1` (stereo not drawn) [terpinyl acetate] yielded an odorant receptor activation of 1.4.

`CC(C)CC(=O)O` [isovaleric acid] gave an odorant receptor activation of 1.07. `CC(C)(C)c1ccc(CCC=O)cc1` [bourgeonal] registered an odorant receptor activation of 0.173. `CC(C)C=O` [isobutyraldehyde] returned an odorant receptor activation of 0.961. As for `COC(=O)c1ccccc1` [methyl benzoate], the odorant receptor activation turned out to be 1.
